Patent US20200048331A1 (CANIMGUIDE THERAPEUTICS, published 2020)
Results are given in words; binding and its absence hold for the method and conditions named. Some entries that bind do so weakly or less than the wild type.

The chains behind the UniProt entries cited, without tags or fusion partners. Residues count along the entry.
UniProt P01589, residues 22-213: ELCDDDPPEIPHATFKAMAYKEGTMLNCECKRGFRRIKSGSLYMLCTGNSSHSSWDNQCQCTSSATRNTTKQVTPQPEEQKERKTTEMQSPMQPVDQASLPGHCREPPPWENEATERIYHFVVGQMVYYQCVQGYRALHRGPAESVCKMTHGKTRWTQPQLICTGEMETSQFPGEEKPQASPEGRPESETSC

Biological target: fusion protein of CD25 and the Fc-part of IgG (UniProt P01589)
Assay: ELISA, CD25-Fc on protein G coated plates, biotinylated IL-2 with or without peptide 3028

- binding: binds
B1: synthesized albumin peptide 3028 VFDEFKPLVEEPQNLIK (peptide)
peptide: VFDEFKPLVEEPQNLIK
notes: Synthetic (CSBio); also called 80
